Assay results taken from patent US20240294465A1, “NOVEL ANTI-FIBROTIC DRUGS” (HELMHOLTZ ZENTRUM MUNCHEN - DEUTSCHES FORSCHUNGSZENTRUM FUR …, priority 2021, published 2024).
At least one compound was matched to its structure with a doubt left.

Legend:
[1] = system: ECM deposition of collagen I, collagen V and fibulin 1 by phLFs+TGFβ1; test: 3D ECM deposition assay (collagen I, collagen V, fibulin 1), dose-response and live imaging; type: cell-based, human; conditions: 75 μM, 150 μM, 300 μM
Experimental: phLFs were cultured in DMEM F-12 medium with 20% fetal bovine serum (FBS) and antibiotic supplement as mentioned above. Cells were seeded with 6000 cells/well in 384-well CellCarrier plates (Perkin Elmer, Cat #6007550). Following overnight incubation, cells were starved in serum-reduced medium (1% FBS with 0.1 mM 2-phosphoascorbate (Sigma, Cat #49752)) for 24 h. Afterwards, cells were treated with TGFβ1 (1 ng/ml) or vehicle, and additionally small molecules or appropriate vehicle controls were added. […] Fluorescenceconjugation of the collagen type 1 antibody was done by using the AlexaFluor-555 Protein Labeling Kit (Invitrogen, Cat #A20174) according to manufacturer's instructions. […]
Following fixation, the automated imaging was achieved by using aconfocal laser scanning microscope (LSM710, Zeiss) with automated focus detection for three-dimensional image acquisition (1024 px×1024 px×9 px which equals a dimension of 1417 μm×1417 μm×16 μm). For post-acquisition analysis images were imported into IMARIS software (Bitplane) and volume detection or alternatively quantification of the mean fluorescence intensity, as well as Hoechst-stained cell nuclei were automatically counted by using Imaris' spot detection algorithm. […]

[2] = prior art; read-out: IC50 (antifibrotic potency); cited from earlier work
[3] = system: cell shape, microtubules and actin of phLFs; test: Fluorescence microscopy of cell morphology and cytoskeleton (α-Tubulin, phalloidin, calcein); type: cell-based, human; conditions: Tranilast 100 μM
Description: FIG. 14: Dose-response relationships of N23Ps, live imaging of ECM deposition and cell-morphology switch. (A) Structural formula for Tranilast and N23Ps (example 84 and example 85) indicating 2-butoxy-substitution at R1 and IC50 values. […] Cell nuclei in blue (HOECHST). Scale bar=500 μm. […] Cell nuclei were stained by Hoechst (blue). Scale bar=50 μm. (F) Confocal images of subconfluent phLFs+TGFβ1 stained for Hoechst (blue), calcein (green) and phalloidin (red) showing round cell morphologies after treatment with example 84 as well as extensive actin cytoskeletal rearrangements (red). […] Scale bar=500 μm. Data are presented as means t SEM. Differences between groups were evaluated with paired t-tests. * p<0.05. n=3 (three different patient phLFs).
FIG. 16: (A) Fluorescence wide-field microscopy images (10× objective in low magnification and resolution) of phLFs treated with 5 μM DMSO, 50 μM example 84 and 100 μM Tranilast, and stained for Hoechst (blue), α-Tubulin (green) and filamentous actin (red, Phalloidin). […] Scale bar=100 μm. (B) Fluorescence wide-field microscopy images (63× objective in high magnification and resolution) of phLFs treated with either 5 μM DMSO or 50 μM example 84, and stained for Hoechst (blue), a.-Tubulin (green) and filamentous actin (red, Phalloidin). […] Scale bar=[…]. iPSC=induced pluripotent stem cells. […] Scale bar=350 μm. […]

[4] = system: ECM deposition by phLFs+TGFβ1; test: FANTAIL (CNN) hit identification in ECM deposition screen of 1509 FDA-approved compounds; type: cell-based, human; conditions: after UMAP filtering of predicted hits
[5] = system: collagen I, collagen V, fibulin 1, fibronectin, αSMA protein in phLFs; test: Western blotting of ECM proteins and αSMA in phLFs (lysates and medium supernatants); type: cell-based, human; conditions: phLFs+TGFβ1+Tranilast
Experimental: Cells were scraped off the plastic dish directly into 200 μl ice-cold RIPA buffer containing 1× Roche complete mini protease inhibitor cocktail. After incubating the samples for 30 minutes on ice, insoluble material was removed by centrifugation at 14.000 g for 15 minutes at 4° C. and the supernatant was further processed. Samples were mixed with 50 mM Tris-HCl, pH 6.8, 100 mM DTT, 2% SDS, 1% bromphenol blue, and 10% glycerol, and proteins were separated using standard SDS-10% PAGE. For immunoblotting, proteins were transferred to PVDF (Millipore (Billerica, MA, (USA)), 0.45 μm or 0.2 μm) membranes, which were blocked with 5% milk in TBST (0.1% Tween 20 in TBS) and incubated with primary, followed by HRP-conjugated secondary antibodies over night at 4° C. and at room temperature for 1 hour, respectively. For immunoblotting the following primary antibodies were used: monoclonal mouse anticollagen type 5 (1 mg/mL) from […] (Cat #sc-166155), polyclonal rabbit anti-collagen type 3 (1 mg/mL) from Rockland (Cat #600-401-105), polyclonal rabbit anti-collagen type 1 (1 mg/mL) from Rockland (Cat #600-401-103-0.5), monoclonal mouse anti-fibulin 1 (1 mg/mL) from SantaCruz (Cat #sc-25281), polyclonal rabbit anti-fibronectin (1 mg/mL) from SantaCruz (Cat #sc-9068), and monoclonal mouse anti-p-actin-peroxidase (AC-15, Sigma, 1:10000). Goat anti-rabbit and goat anti-mouse IgG conjugated to horseradish peroxidase (Cell Signaling, 1:10000) were applied as secondary antibodies. CXCL/IL-8 concentrations were determined using Human IL-8/CXCL8 DuoSet ELISA (DY208-05) according to the manufacturer's protocol.

[6] = system: αSMA, collagen I, fibulin 1, collagen V transcripts in phLFs; test: qRT-PCR gene expression in phLFs; type: cell-based, human; conditions: phLFs+TGFβ1+Tranilast

COc1ccc(/C=C/C(=O)Nc2ccccc2C(=O)O)cc1OC [Tranilast]
deposition of ECM (collagen I, collagen V, fibulin 1) [1]: inhibitory effect | IC50 [2]: ~150 µM | cell morphology ([3]; b48: example 84 50 μM): did not show round but elongated cell morphologies | microtubules (α-Tubulin staining) ([3]; example 84 50 μM): did not show effects on the microtubule cytoskeleton | hit classification in ECM deposition screen [4]: promising candidate for repurposing in IPF | cytosolic αSMA protein [5]: significant dose-dependent reduction | soluble collagen I and collagen V protein [5]: significant dose-dependent reduction | soluble fibulin 1 protein [5]: significant dose-dependent reduction | fibulin 1 and collagen V transcripts (qPCR), down-regulation [6]: surprisingly not | αSMA and collagen I transcripts (qPCR) [6]: significant dose-dependent down-regulation
